# According to the supplement of paper PMC12024529:
# Counter-ions that a name gives are not always drawn. The list shows a part of the results. Part of the spread comes from offsets between plates or batches.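 The cells are HEK293 lines stably expressing B-domain-deleted factor VIII fused to Gaussia luciferase, either wild type or a misfolding-prone missense mutant. Each score is mean luminescence from triplicate wells minus the DMSO mean, divided by the DMSO standard deviation; a score of 2 or more counts as a hit, and low scores may reflect lower secretion or poorer cell viability.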
# Assays:
# HEK293 WT BDD-FVIII-Gluc = assay: secreted FVIII-Gluc luciferase Z-score vs DMSO control; higher = more FVIII-Gluc secretion; conditions: 5 µM; 24 h
# [1] = test system: HEK293 p.N1941S BDD-FVIII-Gluc; assay: as above; conditions: 5 µM; 24 h
Structure (SMILES),secreted FVIII-Gluc luciferase Z-score (HEK293 WT BDD-FVIII-Gluc),secreted FVIII-Gluc luciferase Z-score [1]
Cc1ccc(NC(=O)c2ccc(CN3CCN(C)CC3)cc2)cc1Nc1nccc(-c2cccnc2)n1 [Imatinib Mesylate],inactive: -2.45,inactive: -6.1
C=C(c1ccc(C(=O)O)cc1)c1cc2c(cc1C)C(C)(C)CCC2(C)C [Bexarotene],inactive: -1.97,inactive: 0.368
CCCc1nn(C)c2c(=O)[nH]c(-c3cc(S(=O)(=O)N4CCN(C)CC4)ccc3OCC)nc12 [Sildenafil citrate],inactive: -3.04,inactive: 0.0337
CC(C)c1nc(N(C)S(C)(=O)=O)nc(-c2ccc(F)cc2)c1/C=C/[C@@H](O)C[C@@H](O)CC(=O)O [Rosuvastatin calcium (Crestor)],inactive: -0.406,inactive: -0.731
CCOc1ccc(NC(C)=O)cc1 [Phenacetin],inactive: 1.42,inactive: 1.15
O=C1CC[C@@H](C(=O)N2CSC[C@H]2C(=O)O)N1 [Pidotimod],inactive: 1.29,inactive: 0.173
CC[C@H]1OC(=O)[C@H](C)[C@@H](O[C@H]2C[C@@](C)(OC)[C@@H](O)[C@H](C)O2)[C@H](C)[C@@H](O[C@@H]2O[C@H](C)C[C@H](N(C)C)[C@H]2O)[C@](C)(O)C[C@@H](C)/C(=N\OCOCCOC)[C@H](C)[C@@H](O)[C@]1(C)O [Roxithromycin (Roxl-150)],inactive: -1.66,inactive: -4.85
CC(=O)[C@H]1CC[C@H]2[C@@H]3CCC4=CC(=O)CC[C@]4(C)[C@H]3CC[C@]12C [Progesterone (Prometrium)],inactive: -2.5,inactive: -0.169
